The other results are listed elsewhere or left out. Small differences around the control level are noise.

Amino acid sequences for entries named in this document (tags omitted). A change or cut given only in a name is not applied to a line headed by its entry.
UniProt A6NHL2: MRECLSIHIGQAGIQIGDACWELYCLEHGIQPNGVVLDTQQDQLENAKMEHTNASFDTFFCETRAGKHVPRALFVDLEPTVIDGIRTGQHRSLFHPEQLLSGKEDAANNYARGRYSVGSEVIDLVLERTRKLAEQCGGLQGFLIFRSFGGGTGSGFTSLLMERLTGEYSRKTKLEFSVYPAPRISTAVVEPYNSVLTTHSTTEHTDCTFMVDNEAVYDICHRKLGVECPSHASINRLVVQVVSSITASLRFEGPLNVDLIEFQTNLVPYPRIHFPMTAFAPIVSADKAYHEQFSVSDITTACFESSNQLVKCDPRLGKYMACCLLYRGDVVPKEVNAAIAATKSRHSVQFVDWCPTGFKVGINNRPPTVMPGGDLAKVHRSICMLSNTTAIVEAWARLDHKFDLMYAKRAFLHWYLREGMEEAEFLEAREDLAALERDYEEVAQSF
UniProt A6NCL7: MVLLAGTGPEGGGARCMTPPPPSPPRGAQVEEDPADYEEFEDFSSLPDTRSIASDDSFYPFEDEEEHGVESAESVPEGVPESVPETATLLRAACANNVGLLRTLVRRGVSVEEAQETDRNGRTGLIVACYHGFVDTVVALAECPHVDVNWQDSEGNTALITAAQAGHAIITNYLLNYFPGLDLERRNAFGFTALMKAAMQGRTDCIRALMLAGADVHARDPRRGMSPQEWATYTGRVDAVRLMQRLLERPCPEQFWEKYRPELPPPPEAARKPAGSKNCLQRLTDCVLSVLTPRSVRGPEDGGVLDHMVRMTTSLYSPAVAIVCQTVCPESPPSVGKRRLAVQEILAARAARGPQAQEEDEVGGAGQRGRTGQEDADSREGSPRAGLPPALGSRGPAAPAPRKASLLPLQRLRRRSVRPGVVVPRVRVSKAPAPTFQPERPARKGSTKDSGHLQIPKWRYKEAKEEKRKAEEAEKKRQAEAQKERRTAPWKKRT
UniProt A5YKK6, whole entry: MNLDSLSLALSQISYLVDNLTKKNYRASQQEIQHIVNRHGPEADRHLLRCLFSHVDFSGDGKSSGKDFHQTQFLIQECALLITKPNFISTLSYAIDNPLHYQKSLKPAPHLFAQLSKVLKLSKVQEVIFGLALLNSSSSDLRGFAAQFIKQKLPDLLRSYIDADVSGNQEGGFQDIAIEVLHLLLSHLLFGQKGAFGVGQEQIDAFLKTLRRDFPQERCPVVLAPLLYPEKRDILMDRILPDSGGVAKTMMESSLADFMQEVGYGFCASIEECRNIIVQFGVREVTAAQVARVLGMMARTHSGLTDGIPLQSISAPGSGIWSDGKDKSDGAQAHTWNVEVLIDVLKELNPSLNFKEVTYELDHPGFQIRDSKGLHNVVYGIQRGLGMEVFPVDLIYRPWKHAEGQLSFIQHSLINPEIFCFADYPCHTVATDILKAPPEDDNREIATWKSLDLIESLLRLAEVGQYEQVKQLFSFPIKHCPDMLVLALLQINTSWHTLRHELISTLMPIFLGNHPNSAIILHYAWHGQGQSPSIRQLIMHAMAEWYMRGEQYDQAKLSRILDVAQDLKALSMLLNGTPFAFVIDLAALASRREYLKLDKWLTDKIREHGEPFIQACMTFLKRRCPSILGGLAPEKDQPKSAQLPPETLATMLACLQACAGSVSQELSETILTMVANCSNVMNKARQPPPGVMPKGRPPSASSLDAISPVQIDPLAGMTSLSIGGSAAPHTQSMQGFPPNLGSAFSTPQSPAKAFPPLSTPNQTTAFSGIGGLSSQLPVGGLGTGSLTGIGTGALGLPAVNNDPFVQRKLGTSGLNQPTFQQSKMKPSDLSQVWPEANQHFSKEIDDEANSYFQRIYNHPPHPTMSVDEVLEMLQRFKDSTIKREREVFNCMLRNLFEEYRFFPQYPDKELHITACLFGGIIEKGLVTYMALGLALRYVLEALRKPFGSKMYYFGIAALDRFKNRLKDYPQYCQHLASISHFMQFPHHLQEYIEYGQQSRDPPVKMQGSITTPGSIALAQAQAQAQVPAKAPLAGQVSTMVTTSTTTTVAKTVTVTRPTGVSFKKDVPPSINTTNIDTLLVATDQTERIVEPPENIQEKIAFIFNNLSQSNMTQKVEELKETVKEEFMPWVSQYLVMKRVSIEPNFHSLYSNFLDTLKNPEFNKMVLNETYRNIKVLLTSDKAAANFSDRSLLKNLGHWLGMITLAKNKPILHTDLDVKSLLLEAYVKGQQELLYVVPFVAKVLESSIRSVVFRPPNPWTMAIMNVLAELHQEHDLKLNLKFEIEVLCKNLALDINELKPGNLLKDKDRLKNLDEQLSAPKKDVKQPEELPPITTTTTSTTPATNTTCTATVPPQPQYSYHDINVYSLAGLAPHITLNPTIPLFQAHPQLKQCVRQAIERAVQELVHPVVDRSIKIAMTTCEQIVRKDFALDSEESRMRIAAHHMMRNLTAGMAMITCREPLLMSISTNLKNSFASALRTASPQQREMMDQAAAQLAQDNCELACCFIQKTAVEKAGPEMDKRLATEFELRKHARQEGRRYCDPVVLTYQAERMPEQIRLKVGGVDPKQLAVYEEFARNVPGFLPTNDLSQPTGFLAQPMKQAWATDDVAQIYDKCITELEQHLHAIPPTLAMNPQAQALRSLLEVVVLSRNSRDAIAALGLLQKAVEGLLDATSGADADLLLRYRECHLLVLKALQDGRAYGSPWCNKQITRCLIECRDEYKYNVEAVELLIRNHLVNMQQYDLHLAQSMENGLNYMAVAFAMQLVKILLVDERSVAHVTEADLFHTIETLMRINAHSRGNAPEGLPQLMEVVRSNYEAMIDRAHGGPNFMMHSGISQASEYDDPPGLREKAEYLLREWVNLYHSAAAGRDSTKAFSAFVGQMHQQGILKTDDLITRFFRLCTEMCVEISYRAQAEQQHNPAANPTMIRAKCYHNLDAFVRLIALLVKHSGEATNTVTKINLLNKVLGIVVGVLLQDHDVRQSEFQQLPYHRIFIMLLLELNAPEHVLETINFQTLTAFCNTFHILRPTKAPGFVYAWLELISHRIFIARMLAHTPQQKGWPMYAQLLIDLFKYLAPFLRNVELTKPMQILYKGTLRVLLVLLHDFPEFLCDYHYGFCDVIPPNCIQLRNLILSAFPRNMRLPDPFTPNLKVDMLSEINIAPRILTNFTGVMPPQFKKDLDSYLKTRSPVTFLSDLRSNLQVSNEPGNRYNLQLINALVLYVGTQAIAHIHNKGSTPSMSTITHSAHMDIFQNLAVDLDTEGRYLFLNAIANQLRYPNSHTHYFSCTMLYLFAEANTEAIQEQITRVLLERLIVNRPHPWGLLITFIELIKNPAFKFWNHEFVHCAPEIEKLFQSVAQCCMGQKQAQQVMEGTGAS
UniProt A6NM28: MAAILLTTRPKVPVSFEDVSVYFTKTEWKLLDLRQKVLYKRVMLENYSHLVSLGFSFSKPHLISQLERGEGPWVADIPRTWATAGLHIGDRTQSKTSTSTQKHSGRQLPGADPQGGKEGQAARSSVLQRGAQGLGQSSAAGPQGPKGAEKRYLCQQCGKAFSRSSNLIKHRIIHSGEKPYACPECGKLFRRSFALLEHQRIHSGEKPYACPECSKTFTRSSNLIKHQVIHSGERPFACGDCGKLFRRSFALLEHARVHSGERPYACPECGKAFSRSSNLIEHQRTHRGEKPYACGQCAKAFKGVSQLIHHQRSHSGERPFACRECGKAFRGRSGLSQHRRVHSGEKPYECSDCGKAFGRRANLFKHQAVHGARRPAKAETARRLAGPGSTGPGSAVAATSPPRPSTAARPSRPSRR
UniProt A2RUR9: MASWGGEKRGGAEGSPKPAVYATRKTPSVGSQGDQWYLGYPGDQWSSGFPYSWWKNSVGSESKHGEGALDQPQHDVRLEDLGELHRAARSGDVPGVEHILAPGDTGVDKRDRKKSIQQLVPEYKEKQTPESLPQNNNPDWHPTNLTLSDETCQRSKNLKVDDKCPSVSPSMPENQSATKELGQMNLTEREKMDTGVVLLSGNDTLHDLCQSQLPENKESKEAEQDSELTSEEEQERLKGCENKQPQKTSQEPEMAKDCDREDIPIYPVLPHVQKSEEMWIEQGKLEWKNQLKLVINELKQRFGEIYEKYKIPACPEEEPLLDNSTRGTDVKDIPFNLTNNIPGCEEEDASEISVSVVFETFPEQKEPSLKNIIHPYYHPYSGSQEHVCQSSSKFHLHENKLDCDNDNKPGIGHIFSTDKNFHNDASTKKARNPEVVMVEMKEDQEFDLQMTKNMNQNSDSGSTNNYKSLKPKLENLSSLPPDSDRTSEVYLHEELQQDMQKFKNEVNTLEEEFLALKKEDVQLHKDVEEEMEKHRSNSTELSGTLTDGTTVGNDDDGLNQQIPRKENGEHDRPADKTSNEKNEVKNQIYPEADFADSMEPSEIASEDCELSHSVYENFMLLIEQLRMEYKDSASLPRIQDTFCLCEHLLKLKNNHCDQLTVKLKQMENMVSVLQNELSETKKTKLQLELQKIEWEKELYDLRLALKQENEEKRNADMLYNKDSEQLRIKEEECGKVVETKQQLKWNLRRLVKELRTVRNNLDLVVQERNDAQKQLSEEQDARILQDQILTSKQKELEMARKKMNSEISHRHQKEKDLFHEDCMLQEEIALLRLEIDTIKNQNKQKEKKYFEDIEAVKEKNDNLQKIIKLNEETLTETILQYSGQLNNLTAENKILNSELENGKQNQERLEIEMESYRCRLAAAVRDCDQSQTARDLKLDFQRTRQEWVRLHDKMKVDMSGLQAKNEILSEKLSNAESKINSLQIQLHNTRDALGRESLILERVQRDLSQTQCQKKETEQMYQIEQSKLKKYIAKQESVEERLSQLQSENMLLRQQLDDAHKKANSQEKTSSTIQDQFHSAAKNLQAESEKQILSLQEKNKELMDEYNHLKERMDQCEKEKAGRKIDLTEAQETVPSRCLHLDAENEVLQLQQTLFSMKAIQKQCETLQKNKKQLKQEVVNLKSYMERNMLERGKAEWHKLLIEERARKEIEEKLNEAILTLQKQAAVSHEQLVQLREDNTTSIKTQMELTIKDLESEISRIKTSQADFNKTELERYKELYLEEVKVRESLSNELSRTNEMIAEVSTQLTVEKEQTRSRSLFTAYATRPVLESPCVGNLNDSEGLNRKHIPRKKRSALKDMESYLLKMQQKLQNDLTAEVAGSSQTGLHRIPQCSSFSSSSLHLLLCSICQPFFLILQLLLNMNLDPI
UniProt A6NKD9: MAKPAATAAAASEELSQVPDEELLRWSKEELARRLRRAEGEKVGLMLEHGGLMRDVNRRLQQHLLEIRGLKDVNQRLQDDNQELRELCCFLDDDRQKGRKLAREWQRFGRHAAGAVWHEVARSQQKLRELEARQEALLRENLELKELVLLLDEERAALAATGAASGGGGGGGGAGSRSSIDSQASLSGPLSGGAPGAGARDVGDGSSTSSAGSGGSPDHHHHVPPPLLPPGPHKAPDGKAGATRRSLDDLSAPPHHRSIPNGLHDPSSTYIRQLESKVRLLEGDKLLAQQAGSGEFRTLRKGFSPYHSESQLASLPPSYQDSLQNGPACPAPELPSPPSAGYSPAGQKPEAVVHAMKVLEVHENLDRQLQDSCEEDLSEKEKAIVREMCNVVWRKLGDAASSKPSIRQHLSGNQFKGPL
UniProt A5D8V6: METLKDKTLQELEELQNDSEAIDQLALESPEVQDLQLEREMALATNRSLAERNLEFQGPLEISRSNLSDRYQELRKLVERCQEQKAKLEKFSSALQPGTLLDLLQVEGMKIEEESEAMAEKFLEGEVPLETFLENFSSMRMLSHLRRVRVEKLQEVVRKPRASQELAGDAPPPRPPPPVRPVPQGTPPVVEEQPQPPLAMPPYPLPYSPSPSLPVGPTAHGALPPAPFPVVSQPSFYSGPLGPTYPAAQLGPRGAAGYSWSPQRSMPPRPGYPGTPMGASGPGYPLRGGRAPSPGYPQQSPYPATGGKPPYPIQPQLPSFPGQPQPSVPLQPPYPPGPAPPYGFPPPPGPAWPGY
UniProt A4QPH2, whole entry: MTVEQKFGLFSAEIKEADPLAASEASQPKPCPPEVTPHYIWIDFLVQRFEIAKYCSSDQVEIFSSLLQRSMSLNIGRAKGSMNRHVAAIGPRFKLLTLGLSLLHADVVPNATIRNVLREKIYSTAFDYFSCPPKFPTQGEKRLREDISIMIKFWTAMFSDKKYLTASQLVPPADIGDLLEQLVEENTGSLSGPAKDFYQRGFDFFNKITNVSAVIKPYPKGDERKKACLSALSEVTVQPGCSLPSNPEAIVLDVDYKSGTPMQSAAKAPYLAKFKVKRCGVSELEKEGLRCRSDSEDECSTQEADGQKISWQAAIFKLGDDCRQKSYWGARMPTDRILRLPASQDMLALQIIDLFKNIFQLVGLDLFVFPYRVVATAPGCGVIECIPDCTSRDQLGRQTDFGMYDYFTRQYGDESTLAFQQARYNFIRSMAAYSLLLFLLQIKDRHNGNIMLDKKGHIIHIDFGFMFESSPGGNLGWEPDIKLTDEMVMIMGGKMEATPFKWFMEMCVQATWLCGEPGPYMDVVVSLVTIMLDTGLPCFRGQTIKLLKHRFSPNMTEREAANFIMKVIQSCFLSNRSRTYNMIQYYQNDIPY

Compound in this test: Cc1nc(Nc2ncc(C(=O)Nc3c(C)cccc3Cl)s2)cc(N2CCN(CCO)CC2)n1 [dasatinib]
The test is described as follows: log2 fold change of tryptic peptide abundance, ligand vs vehicle (limited proteolysis) (log2 ratio); higher = more trypsin-susceptible (destabilized). To be noted: ligand concentration: 5 uM; sample: K562 cleared lysate.
In the case of “UniProt A6NKT7 (peptide sequence: AVECYRR, peptide start residue: 79)”, the log2 fold change came out at 0.573.
On to “SMCHD1 (peptide sequence: GKRPIFECFWNGR, peptide start residue: 467) (UniProt A6NHR9)”, for which the log2 fold change is -0.202.
For “UniProt A6NI28 (peptide sequence: CLAEPLMTYK, peptide start residue: 463)”, the log2 fold change is 0.434.
As for “A0A3B3IS91 (peptide sequence: AAAAQPIGHPDALER, peptide start residue: 86), A0A3B3IS91”, the log2 fold change was -0.011.
On to “A0A0U1RRE5 (peptide sequence: STLPPGNAR, peptide start residue: 11), A0A0U1RRE5”, for which the log2 fold change is -0.302.
Regarding “UHRF1BP1L (peptide sequence: SVTVNHMSDNR, peptide start residue: 922) (UniProt A0JNW5)”, the log2 fold change was 0.44.
With “TUBAL3 (peptide sequence: SLFHPEQLLSGKEDAANNYAR, peptide start residue: 92) (UniProt A6NHL2)”, the log2 fold change was determined as 0.218.
The value for “A0AVF1 (peptide sequence: SHYQEAIDIYKR, peptide start residue: 165)” was -0.0396; that for “ZNF785 (peptide sequence: RLPHSCPDCGR, peptide start residue: 169) (UniProt A8K8V0)” was -0.328.
For “A0A3B3IU46 (peptide sequence: SWGNNYPQHR, peptide start residue: 86), A0A3B3IU46” the value was -0.0542; for “A0A2Z4LIS9 (peptide sequence: STEEGEVAALR, peptide start residue: 26), A0A2Z4LIS9”, 0.121.
For “PALM3 (peptide sequence: TGGGEETWEAEKR, peptide start residue: 384) (UniProt A6NDB9)” the value was -0.695; for “UniProt A6NCL7 (peptide sequence: KAEEAEKK, peptide start residue: 469)”, -0.178.
Regarding “BDP1 (peptide sequence: TILPKDETEKK, peptide start residue: 1606) (UniProt A6H8Y1)”, the log2 fold change was -0.595.
For “CNOT1 (peptide sequence: ECHLLVLK, peptide start residue: 1686) (UniProt A5YKK6)” the value was -0.225.
For the target “ZFP92 (peptide sequence: QLPGADPQGGK, peptide start residue: 107) (UniProt A6NM28)”, the log2 fold change stood at 0.311.
In the case of “CCDC144A (peptide sequence: FKNEVNTLEEEFLALKK, peptide start residue: 452) (UniProt A2RUR9)”, the log2 fold change came out at 0.132.
The value for “A0A3B3IRV3 (peptide sequence: ESVSNCIQLK, peptide start residue: 9), A0A3B3IRV3” was -0.000712; that for “CCDC85C (peptide sequence: EMCNVVWR, peptide start residue: 387) (UniProt A6NKD9)” was 0.21; that for “A0A1W2PR95 (peptide sequence: EYYLLHLQR, peptide start residue: 191), A0A1W2PR95” was -0.275.
For “VPS37C (peptide sequence: EMALATNR, peptide start residue: 40) (UniProt A5D8V6)” the value was -0.0711; for “UniProt A6NKF1 (peptide sequence: LEVVPGCR, peptide start residue: 78)”, 0.0541; for “UniProt A4QPH2 (peptide sequence: CGVSELEK, peptide start residue: 1812)”, -0.205.
With “A0AVT1 (peptide sequence: NFALLGVGTSK, peptide start residue: 478)”, the log2 fold change is 0.139.
Regarding “CPED1 (peptide sequence: SDVFKGENYQK, peptide start residue: 430) (UniProt A4D0V7)”, the log2 fold change came out at 0.327.
Turning to “USP27X (peptide sequence: FTRPEHLGSSAK, peptide start residue: 369) (UniProt A6NNY8)”, the log2 fold change is -0.112.
With “CCDC66 (peptide sequence: SPSSPVPVVK, peptide start residue: 794) (UniProt A2RUB6)”, the log2 fold change is -0.581.
“UniProt A2RU48 (peptide sequence: KLQDIKEK, peptide start residue: 98)”: the log2 fold change is -0.159.
“UniProt A8K8P3 (peptide sequence: AVQHHHR, peptide start residue: 778)”: the log2 fold change came out at 0.254.

(Values after the supplement of paper PMC12819154, “High-throughput peptide-centric local stability assay extends protein–ligand identification to membrane proteins, tissues and bacteria” (Nature Structural & Molecular Biology, 2025).)
